At least one peptide structure holds a part that was inferred or is arguable (an end, a ring closure or a residue).
Legend:
[1] = molecular target: T1, Caco-2 MLC kinase (215 kDa MLCK) (Homo sapiens, UniProt Q15746); experiment: in vitro MLCK kinase assay (MLC phosphorylation, autoradiography); format: biochemical; details: γ32P-ATP, 5 μmol/L recombinant MLC, 30° C.; read-out: IC50, inhibition of Caco-2 MLC kinase activity
T1 construct: Monolayers were harvested in lysis buffer; endogenous in cells; host or cells: Caco-2 monolayers (crude detergent lysate, 0.1 mg/ml)

[2] = system: Caco-2 monolayers; experiment: transepithelial resistance (TER) of Caco-2 monolayers; format: cell-based; details: 500 μM, one hour; elevation in TER as compared to control Caco-2 monolayers
[3] = system: Caco-2 BBe cells; experiment: purse-string wound closure in Caco-2 BBe monolayers; format: cell-based
[4] = molecular target: T2, MLCK (Homo sapiens, UniProt Q15746); experiment: PIK probe binding to aldehyde-fixed MLCK; details: active versus inactive MLCK
T2 construct: host or cells: Caco-2 cells, fixed in 1% paraformaldehyde

[5] = system: Tumors of mice; experiment: intratumoral injection in mice, tumor size and histology; details: mouse, in vivo

Substance: Ac-RKKYKYRRK-NH2 [PIK, Arg-Lys-Lys-Tyr-Lys-Tyr-Arg-Arg-Lys]
- IC50 [1]: 29 µM
- Δ TER [2]: 45% +/− 5%
- actomyosin ring assembly and contraction during wound closure ([3]; 250 μM prior to wounding): did not prevent actomyosin ring assembly, but did cause contraction of the assembly to stall
- decrease of local current leak ([3]; between 2 min and 8 min after creating the lesion, 53% in control monolayers): 36%
- repair of single-cell wounds ([3]; single cells destroyed with a current pulse): marked slowing of repair
- binding to aldehyde-fixed MLCK [4]: bind to active, but not inactive, aldehyde-fixed MLCK
- tumor necrosis and size reduction, compared with D-PIK(reversed) [5]: found to function in a similar manner
